The target of one assay is FLAG-RALY (UniProt Q9UKM9). Kind of assay: co-IP; HEK 293T cells cotransfected for 24 h, lysed in NP40 lysis buffer, anti-FLAG-antibody-bound Dynabeads Protein G, Western blot; also with RNase in the cell lysis.
In assay [1] the target is RALY expressed from pCold TF in E. coli (UniProt Q9UKM9). Put plainly: pull-down; GST affinity-isolation: proteins expressed from pCold GST or pCold TF in E. coli BL21 (DE3), GST Protein Interaction Pull-Down Kit (Thermo), eluted with reduced glutathione, Western blot. A general note: A western blot detects proteins with antibodies after separation by electrophoresis.

Sequences of proteins named here, by UniProt entry; tags and fusion partners are left off.
UniProt Q9UKM9: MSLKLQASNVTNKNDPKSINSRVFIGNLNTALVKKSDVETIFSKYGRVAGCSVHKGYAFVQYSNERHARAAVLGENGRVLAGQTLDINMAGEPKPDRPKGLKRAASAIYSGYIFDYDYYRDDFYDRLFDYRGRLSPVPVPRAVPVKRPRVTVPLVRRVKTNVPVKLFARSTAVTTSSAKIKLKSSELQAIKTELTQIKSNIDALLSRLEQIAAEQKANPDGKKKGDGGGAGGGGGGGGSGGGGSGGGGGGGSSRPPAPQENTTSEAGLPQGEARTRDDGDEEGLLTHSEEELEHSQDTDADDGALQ

Consider three molecules from publication PMC9287142.

These are yes or no findings as the source states them, for the method shown. In cells and extracts the contact can be indirect. Some results given as binding are weak or reduced against the parent protein; the word gives no strength. For part of these data: Sequences can lack the tags named with a protein.

B1: MYC-NDP52 (protein, UniProt Q13137 1-446)
chain: MEETIKDPPTSAVLLDHCHFSQVIFNSVEKFYIPGGDVTCHYTFTQHFIPRRKDWIGIFRVGWKTTREYYTFMWVTLPIDLNNKSAKQQEVQFKAYYLPKDDEYYQFCYVDEDGVVRGASIPFQFRPENEEDILVVTTQGEVEEIEQHNKELCKENQELKDSCISLQKQNSDMQAELQKKQEELETLQSINKKLELKVKEQKDYWETELLQLKEQNQKMSSENEKMGIRVDQLQAQLSTQEKEMEKLVQGDQDKTEQLEQLKKENDHLFLSLTEQRKDQKKLEQTVEQMKQNETTAMKKQQELMDENFDLSKRLSENEIICNALQRQKERLEGENDLLKRENSRLLSYMGLDFNSLPYQVPTSDEGGARQNPGLAYGNPYSGIQESSSPSPLSIKKCPICKADDICDHTLEQQQMQPLCFNCPICDKIFPATEKQIFEDHVFCHSL
For B1, in the assay with FLAG-RALY, the binding result is listed as “binds”.

B2: NDP52 expressed in E. coli (protein, UniProt Q13137 1-446)
chain: MEETIKDPPTSAVLLDHCHFSQVIFNSVEKFYIPGGDVTCHYTFTQHFIPRRKDWIGIFRVGWKTTREYYTFMWVTLPIDLNNKSAKQQEVQFKAYYLPKDDEYYQFCYVDEDGVVRGASIPFQFRPENEEDILVVTTQGEVEEIEQHNKELCKENQELKDSCISLQKQNSDMQAELQKKQEELETLQSINKKLELKVKEQKDYWETELLQLKEQNQKMSSENEKMGIRVDQLQAQLSTQEKEMEKLVQGDQDKTEQLEQLKKENDHLFLSLTEQRKDQKKLEQTVEQMKQNETTAMKKQQELMDENFDLSKRLSENEIICNALQRQKERLEGENDLLKRENSRLLSYMGLDFNSLPYQVPTSDEGGARQNPGLAYGNPYSGIQESSSPSPLSIKKCPICKADDICDHTLEQQQMQPLCFNCPICDKIFPATEKQIFEDHVFCHSL
Turning to B2, the binding result in assay [1] was “binds”.

B3: MYC-MARCH8 (protein, UniProt Q5T0T0 1-291)
chain: MSMPLHQISAIPSQDAISARVYRSKTKEKEREEQNEKTLGHFMSHSSNISKAGSPPSASAPAPVSSFSRTSITPSSQDICRICHCEGDDESPLITPCHCTGSLHFVHQACLQQWIKSSDTRCCELCKYEFIMETKLKPLRKWEKLQMTSSERRKIMCSVTFHVIAITCVVWSLYVLIDRTAEEIKQGQATGILEWPFWTKLVVVAIGFTGGLLFMYVQCKVYVQLWKRLKAYNRVIYVQNCPETSKKNIFEKSPLTEPNFENKHGYGICHSDTNSSCCTEPEDTGAEIIHV
In the case of B3, the binding result in the assay with FLAG-RALY was “binds”.
